In experiment [1] the target is GST-tagged K-Ras mutant / His-tagged hSOS1 (Homo sapiens, UniProt P01116). Nature of the experiment: HTRF assay, K-Ras mutant / SOS1 interaction. The settings on record: read-out: IC50 against mutant Kras; compound nos. 401-703. Background: In TR-FRET formats the signal depends on donor and acceptor labels being close together.
In a further experiment the target is wildtype Kras / hSOS1 (Homo sapiens, UniProt P01116). Nature of the experiment: HTRF assay, wildtype Kras / SOS1 interaction. The settings on record: read-out: IC50 against wildtype Kras; compound nos. 401-703.

Sequences of proteins named here, by UniProt entry; tags and fusion partners are left off. Residues count along the entry.
UniProt P01116, 1-188 isoform 2: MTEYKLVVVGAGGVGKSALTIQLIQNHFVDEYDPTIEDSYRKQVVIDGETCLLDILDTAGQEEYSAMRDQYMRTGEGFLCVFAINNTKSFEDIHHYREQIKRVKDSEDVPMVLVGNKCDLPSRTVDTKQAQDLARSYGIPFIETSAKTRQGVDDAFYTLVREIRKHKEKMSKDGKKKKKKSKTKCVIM
UniProt P01116, whole entry G12D: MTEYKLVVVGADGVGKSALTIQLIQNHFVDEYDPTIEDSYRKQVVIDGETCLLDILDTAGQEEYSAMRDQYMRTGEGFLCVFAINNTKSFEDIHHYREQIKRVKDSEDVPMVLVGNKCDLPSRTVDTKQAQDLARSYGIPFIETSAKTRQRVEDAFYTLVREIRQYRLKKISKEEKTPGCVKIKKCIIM

Molecules are shown by their SMILES. Structures were worked out from names or drawings and are uncertain.

What is called IC50 is the concentration that gives 50% inhibition. On to `Fc1c(N2CCc3ccccc3C2)ccc2c(N3CCCCCC3)nc(OCC34CCCN3CCC4)nc12`, for which the IC50 in experiment [1] was > 500 nM; on wildtype Kras / hSOS1 it was < 500 nM.

The values are drawn from patent US20240254129A1, “HETEROCYCLIC COMPOUNDS AND USES THEREOF” (Kumquat Biosciences Inc., priority 2021, published 2024).
